This is one part of the list.

The chains behind the UniProt entries cited, without tags or fusion partners.
UniProt Q0JBA9, entry or part of it: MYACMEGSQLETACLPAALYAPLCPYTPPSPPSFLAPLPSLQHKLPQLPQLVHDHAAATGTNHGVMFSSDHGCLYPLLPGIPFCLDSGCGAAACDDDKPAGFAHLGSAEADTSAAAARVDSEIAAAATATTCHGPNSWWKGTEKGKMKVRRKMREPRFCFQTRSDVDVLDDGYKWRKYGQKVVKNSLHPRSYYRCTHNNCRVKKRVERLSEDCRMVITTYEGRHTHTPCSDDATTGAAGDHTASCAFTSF

The target in this assay is OsWRKY34 (Oryza sativa, UniProt Q0JBA9 1-250). Kind of assay: protein-binding microarray (RPBM); PBS, 2% BSA, 51.3 ng/ul salmon testes DNA, 50 uM zinc acetate, 200 nM TF, 25 C, 1 h; high values mean tight binding. The note with it: protein: recombinant; tags: N-terminal polyhistidine and DsRed monomer fusion (pET32a); label: CyDye5-dUTP incorporated in the synthesized complementary strand; 3' TTTTT single-stranded linker to array surface; dsDNA, one strand shown. A digest of the protocol:
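Using Ni–NTA, transcription factors fused N-terminally to polyhistidine and DsRed were purified after expression in E. coli BL21-CodonPlus. These were incubated at 200 nM with a blocked, double-stranded custom Agilent array for 1 h at 25 °C in a buffer containing 50 µM zinc acetate, and the array was washed. The binding signal is per-feature fluorescence intensity (arbitrary units) on an Axon 4000B scanner.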
For the sequence “GGACATATAGCCCTATATATGCACAACATTCATACCAATTCGGAGTCACCTAGTGCAG”, the binding signal was 8500 fluorescence intensity (a.u.).

Consider “GGAGAGGAGTGAGGAGGGATTGTGAGGTGGGGTCGGGGTGCGGAGTCACCTAGTGCAG”, for which the binding signal was 9030 fluorescence intensity (a.u.). Turning to “GGCCACACACTGATCTATTAATGCCTATCATATGCGCATCCGGAGTCACCTAGTGCAG”, the binding signal is 11800 fluorescence intensity (a.u.).

Consider “TTTCAAACCATTGGCAGGCTTCCACGCATGCATGTCTCTCCGGAGTCACCTAGTGCAG”, for which the binding signal was 9180 fluorescence intensity (a.u.). As to “TCGTAATCTAATATATATTTCCTGGTCCTATTACATAACCCGGAGTCACCTAGTGCAG”, the binding signal was 11600 fluorescence intensity (a.u.).

“ACCCTTTTTTTTCTCCAAATTTTCTCCGTCTCATTCCCTACGGAGTCACCTAGTGCAG”: the binding signal was 9560 fluorescence intensity (a.u.). As for “CAGAGGATCCGCGTCCGCTCATCTGTCATCTCGTTCTTCTCGGAGTCACCTAGTGCAG”, the binding signal was 9900 fluorescence intensity (a.u.). For the sequence “TTGTTTTCTACTCCTAATACTCTTTTGTCTGTCTCATCTGCGGAGTCACCTAGTGCAG”, the binding signal was 12400 fluorescence intensity (a.u.).

For “CGGAGAAGTCCGGGCAGGCAAGGGGATGGGGATGGGGATGCGGAGTCACCTAGTGCAG”, the binding signal is 12400 fluorescence intensity (a.u.). The result for “GAAATACGCACATGGGGTGGGCGTGCTTCTACCATGCCTCCGGAGTCACCTAGTGCAG” reads 8290 fluorescence intensity (a.u.); that for “TAAGCATTCAGCCTCTTACAACCCTTTATCATACTTGCTCCGGAGTCACCTAGTGCAG”, 8700 fluorescence intensity (a.u.); that for “TATCCGATCCATGGCGTTCTCTTGAGTCCAGAGAGTATTTCGGAGTCACCTAGTGCAG”, 8460 fluorescence intensity (a.u.). As for “GATGTACATTCCTCTTTTAATGCCTACACTATCGCAGCAACGGAGTCACCTAGTGCAG”, the binding signal was 8260 fluorescence intensity (a.u.). “TTTGCACCACGTACGCACACTTGTTCACGGGCCATAAATCCGGAGTCACCTAGTGCAG”: the binding signal is 8240 fluorescence intensity (a.u.). For the sequence “GTATTGCAATTTTTTTTTGTTTGTGTTGTATCTGTTCTCTCGGAGTCACCTAGTGCAG”, the binding signal was 8110 fluorescence intensity (a.u.). Turning to “CCAACCTATTGCATTGCTACCTCATCCATGTACAAATGTTCGGAGTCACCTAGTGCAG”, the binding signal was 8230 fluorescence intensity (a.u.). For “TGTACTCCTCTTGCCTTCTATCTATCCCCTGATCCCTCCCCGGAGTCACCTAGTGCAG”, the binding signal was 8680 fluorescence intensity (a.u.). On to “AACCATAAAACATGTGATTCTTTTTTTTAACCAAAACTTACGGAGTCACCTAGTGCAG”, for which the binding signal is 8130 fluorescence intensity (a.u.). With “CTAGGAATCGCCAACGCTCGTTTCCAGTAGTTCTCTTGTTCGGAGTCACCTAGTGCAG”, the binding signal was 9500 fluorescence intensity (a.u.). Regarding “CATACTACCTCCTTTCTTAATATACGACGCTAACGCTGTTCGGAGTCACCTAGTGCAG”, the binding signal was 8300 fluorescence intensity (a.u.). Consider “CGTCACCTCTTCTCGACGCCTTTTCACCTTTTTATTTGCACGGAGTCACCTAGTGCAG”, for which the binding signal was 9010 fluorescence intensity (a.u.). The result for “GCGCCATCCCTAATTGTCAGTTTTCCCATTTTGAGCTTCCCGGAGTCACCTAGTGCAG” reads 8320 fluorescence intensity (a.u.); that for “CGGCCCAAGCTTCATTGACAAATTGTCTTGAATTTGTACACGGAGTCACCTAGTGCAG”, 8510 fluorescence intensity (a.u.); that for “GGACGTGCTCTGTGCTTCGCTTTCCCCGTCTGTGGTTGGTCGGAGTCACCTAGTGCAG”, 8780 fluorescence intensity (a.u.). The result for “GAATATCTGCGCCTTGCTTTCACGGCTACCTTCTTTGCTGCGGAGTCACCTAGTGCAG” reads 9260 fluorescence intensity (a.u.); that for “TAGTTTGCGAACAATGGACTGTTATCCGTCAGTTTTTTTTCGGAGTCACCTAGTGCAG”, 8100 fluorescence intensity (a.u.). For “AAAACCCGCAGTCACTCACGGGCTTCTCCGCCACTCCGGACGGAGTCACCTAGTGCAG” the value was 8160 fluorescence intensity (a.u.); for “GAGGCGTGGTTTTAAATAGGTTTAATGGTTTGCAGAATTTCGGAGTCACCTAGTGCAG”, 9080 fluorescence intensity (a.u.); for “TCCAAACTGCACCAGCGTCTGTTCTTGTTTCTTCAATAGTCGGAGTCACCTAGTGCAG”, 8280 fluorescence intensity (a.u.).

“CTATTAATATATAGTTTCACATATCATACACACATTTTGTCGGAGTCACCTAGTGCAG”: the binding signal is 9080 fluorescence intensity (a.u.). On to “CCTTCTTCGCGAACTTCTTCTCCTCCTAACAAATCAATCACGGAGTCACCTAGTGCAG”, for which the binding signal was 9940 fluorescence intensity (a.u.).

With “TGACTTCCCTACGTTCTCCTCTCTCTCTCGGCTTCCACTCCGGAGTCACCTAGTGCAG”, the binding signal is 9440 fluorescence intensity (a.u.).

For “TTTTTTCAACGTAATTTCTTTTTTAGCATTAACTTTTAAGCGGAGTCACCTAGTGCAG”, the binding signal is 8630 fluorescence intensity (a.u.).

As for “AGGCCCCTTTTGGGTATGGTCGCTGGTTTTCTTTGCAGTTCGGAGTCACCTAGTGCAG”, the binding signal was 9110 fluorescence intensity (a.u.). With “CCCGCGTCAGCCCGCCGTCGTCGCCCGCGTCAGCCCCGCCCGGAGTCACCTAGTGCAG”, the binding signal was 9560 fluorescence intensity (a.u.). “CCTCGCTCGTTCAATCTACTCTAATCTATCTCTATAGGAACGGAGTCACCTAGTGCAG”: the binding signal is 8360 fluorescence intensity (a.u.). With “GCCACCGCTGCATCATCCCGCCTGTCTGCCTGCGCGCGCCCGGAGTCACCTAGTGCAG”, the binding signal is 15800 fluorescence intensity (a.u.). In the case of “TGGCGGCGGCGGTGGCGGCGGGCGGTGCTCTAATCGGGTCCGGAGTCACCTAGTGCAG”, the binding signal is 8110 fluorescence intensity (a.u.). With “GCTCCTCTACTTCTTCCTAGTTCCTTCTCGGTTAGCCCTACGGAGTCACCTAGTGCAG”, the binding signal is 9180 fluorescence intensity (a.u.). As to “TCCTCTGCTACTACCTGACAAGCTTTGCTTTGCTCGCACGCGGAGTCACCTAGTGCAG”, the binding signal was 8190 fluorescence intensity (a.u.). As to “CACCATTCATTCAATCTAGTTATTATCTGCTGGGTACTCTCGGAGTCACCTAGTGCAG”, the binding signal is 10800 fluorescence intensity (a.u.).

Take “TTCCAAAAGATATTGCCGTTTTTATTTTTGACACCAATAACGGAGTCACCTAGTGCAG”: the binding signal is 8210 fluorescence intensity (a.u.).

(Values after paper PMC7819943, “Rice protein-binding microarrays: a tool to detect cis-acting elements near promoter regions in rice”.)
